Assay results reported in PubChem BioAssay AID328 (DTP/NCI, 2004).
The list does not hold the whole screen: it is rich in T/C values a quarter to a half above the control, in often repeated tests (any T/C) and in doses without a T/C. Other doses and runs of a compound stand elsewhere. T/C: endpoint of the treated group in % of that of the vehicle group. Some doses have a count of surviving animals in place of a T/C: the source files T/C as zero there, which appears to mark a toxic dose or a test without result, not a measured value. Some survivor counts are full or nearly so, which does not show that the dose was tolerated: survival well below the control is almost never listed, so the zero probably covers shortened survival too. Survivors were counted at the toxicity check, usually on the fifth day, unless a day is given; later deaths do not show. Schedule codes are those of the source, taken here to give the interval after Q, in days (D) or hours (H), and the number of doses after X. Some doses were run more than once; the results are listed from low to high. Where survival is the endpoint, the PubChem record calls one and a half times the control and up active, and a quarter to a half above the control has no call in these data; cut-offs in other NCI protocols can differ. Counts like (3×) stand for listed records that agree. Some T/C values are followed by the survivors on the day toxicity was checked, most often the fifth; where none is given, no animal had died by that day.

Tested on: BDF1 mice, P388 leukemia ip, median survival T/C
Assay: NCI In Vivo Anticancer Drug Screen. Data for tumor model P388 Leukemia (intraperitoneal) in B6D2F1 (BDF1) mice
Conditions: T/C endpoint: median survival time, higher T/C = longer survival
How it was run: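 Survival ratio, drug arm over vehicle arm, in mice with a transplanted tumour.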

[1] = dose: 400.0 mg/kg/injection, schedule: Q04DX003 (ip), vehicle: saline with Tween-80
[2] = dose: 400.0 mg/kg/injection, schedule: Q01DX001 (ip), vehicle: Klucel (hydroxypropylcellulose) (HPC)
[3] = dose: 100.0 mg/kg/injection, schedule: Q01DX009 (ip), vehicle: saline with Tween-80
[4] = dose: 100.0 mg/kg/injection, schedule: Q04DX003 (ip), vehicle: saline with Tween-80
[5] = dose: 200.0 mg/kg/injection, schedule: Q01DX009 (ip), vehicle: saline with Tween-80

SMILES: C[Se]c1ncnc2c(C3OC(CO)C(O)C3O)[nH]nc12 (stereo not given)
- survivor count (dose: 25.0 mg/kg/injection, schedule: Q01DX009 (ip), vehicle: saline): 4 of 6
- survivor count (dose: 50.0 mg/kg/injection, schedule: Q04DX003 (ip), vehicle: saline): 3 of 6

SMILES: c1ccc2c(c1)OCCOCCOc1ccccc1OCCOCCO2
- survivor count (dose: 37.5 mg/kg/injection, schedule: Q01DX009 (ip), vehicle: saline with Tween-80): 6 of 6
- survivor count (dose: 75.0 mg/kg/injection, schedule: Q01DX009 (ip), vehicle: saline with Tween-80): 5 of 6

SMILES: Cc1ccc(C(=O)[O][Hg][CH2]C2COC([CH2][Hg][O]C(=O)c3ccc(C)cc3)CO2)cc1 (stereo not given)
- T/C (dose: 4.5 mg/kg/injection, schedule: Q01DX009 (ip), vehicle: saline with Tween-80): 136 % of control
- T/C (dose: 8.25 mg/kg/injection, schedule: Q01DX009 (ip), vehicle: saline with Tween-80): 136 % of control
- T/C (dose: 9.0 mg/kg/injection, schedule: Q01DX009 (ip), vehicle: saline with Tween-80): 136 % of control
- T/C (dose: 12.5 mg/kg/injection, schedule: Q01DX009 (ip), vehicle: saline sonified): 135 % of control
- T/C (dose: 12.5 mg/kg/injection, schedule: Q01DX009 (ip), vehicle: saline with Tween-80): 131 % of control
- T/C (dose: 18.75 mg/kg/injection, schedule: Q01DX009 (ip), vehicle: saline with Tween-80): 127 % of control
- survivor count (dose: 150.0 mg/kg/injection, schedule: Q04DX003 (ip), vehicle: Klucel (hydroxypropylcellulose) (HPC)): 0 of 6 and 3 of 6
- survivor count (dose: 225.0 mg/kg/injection, schedule: Q04DX003 (ip), vehicle: Klucel (hydroxypropylcellulose) (HPC)): 0 of 6
- survivor count (dose: 335.0 mg/kg/injection, schedule: Q04DX003 (ip), vehicle: Klucel (hydroxypropylcellulose) (HPC)): 0 of 6 and 1 of 6

SMILES: N#Cc1ccc(OC(=O)c2ccc(N=C(N)N)cc2)cc1
- survivor count (dose: 400.0 mg/kg/injection, schedule: Q04DX003 (ip), vehicle: saline): 3 of 6

SMILES: Fc1nc2nc(C(F)(F)F)[nH]c2nc1F
- survivor count (dose: 200.0 mg/kg/injection, schedule: Q04DX003 (ip), vehicle: saline with Tween-80): 2 of 6
- survivor count [1]: 0 of 6

SMILES: COc1cc(C(=O)O)c2c(c1C)OC(=O)c1c(C)cc(O)c(C=O)c1O2
- T/C (dose: 8.0 mg/kg/injection, schedule: Q01DX009 (ip), vehicle: Klucel (hydroxypropylcellulose) (HPC)): 131 % of control
- T/C (dose: 8.0 mg/kg/injection, schedule: Q01DX010 (ip), vehicle: saline): 127 and 147 % of control
- T/C (dose: 16.0 mg/kg/injection, schedule: Q01DX009 (ip), vehicle: Klucel (hydroxypropylcellulose) (HPC)): 136 % of control
- T/C (dose: 16.0 mg/kg/injection, schedule: Q01DX010 (ip), vehicle: saline): 136 % of control
- T/C (dose: 32.0 mg/kg/injection, schedule: Q01DX009 (ip), vehicle: Klucel (hydroxypropylcellulose) (HPC)): 140 % of control [5 of 6 alive]
- T/C (dose: 32.0 mg/kg/injection, schedule: Q01DX010 (ip), vehicle: saline): 127 [5 of 6 alive], 138, 140 % of control
- T/C (dose: 40.0 mg/kg/injection, schedule: Q04DX003 (ip), vehicle: saline): 129 % of control
- survivor count (dose: 63.0 mg/kg/injection, schedule: Q01DX010 (ip), vehicle: saline): 2 of 6
- survivor count (dose: 64.0 mg/kg/injection, schedule: Q01DX009 (ip), vehicle: Klucel (hydroxypropylcellulose) (HPC)): 2 of 6
- survivor count (dose: 64.0 mg/kg/injection, schedule: Q01DX010 (ip), vehicle: saline): 5 of 6
- survivor count (dose: 160.0 mg/kg/injection, schedule: Q01DX001 (ip), vehicle: saline): 2 of 6
- survivor count (dose: 320.0 mg/kg/injection, schedule: Q01DX001 (ip), vehicle: saline): 0 of 6

SMILES: COc1cc2c(cc1OC)C1CCN3CCCC3N1CC2 (stereo not given)
- survivor count [2]: 1 of 6

SMILES: CCOc1nsc(OCC)n1
- survivor count [2]: 5 of 6

SMILES: O=C(CBr)N1CCC2(CC1)SSC1(CCN(C(=O)CBr)CC1)S2
- T/C (dose: 12.5 mg/kg/injection, schedule: Q01DX009 (ip), vehicle: saline with Tween-80, evaluated on day 20): 109 % of control
- T/C (dose: 12.5 mg/kg/injection, schedule: Q01DX009 (ip), vehicle: saline with Tween-80, evaluated on day 22): 103 % of control
- T/C (dose: 12.5 mg/kg/injection, schedule: Q01DX009 (ip), vehicle: saline with Tween-80, evaluated on day 30): 114 and 125 % of control
- T/C (dose: 25.0 mg/kg/injection, schedule: Q01DX009 (ip), vehicle: saline with Tween-80, evaluated on day 20): 127 % of control
- T/C (dose: 25.0 mg/kg/injection, schedule: Q01DX009 (ip), vehicle: saline with Tween-80, evaluated on day 22): 99 % of control
- T/C (dose: 25.0 mg/kg/injection, schedule: Q01DX009 (ip), vehicle: saline with Tween-80, evaluated on day 30): 114 % of control (2×)
- T/C (dose: 50.0 mg/kg/injection, schedule: Q01DX009 (ip), vehicle: saline with Tween-80, evaluated on day 20): 123 % of control
- T/C (dose: 50.0 mg/kg/injection, schedule: Q01DX009 (ip), vehicle: saline with Tween-80, evaluated on day 22): 100 % of control [5 of 6 alive]
- T/C (dose: 50.0 mg/kg/injection, schedule: Q01DX009 (ip), vehicle: saline with Tween-80, evaluated on day 30): 118 [5 of 6 alive] and 122 % of control
- survivor count [3]: 0 of 6
- survivor count [4]: 2 of 6
- survivor count [5]: 4 of 6
- survivor count [1]: 0 of 6

SMILES: CCCCCCCCCCCCCCCCS(=O)CC(O)COC(=O)c1ccc(C(=O)OCC(O)CS(=O)CCCCCCCCCCCCCCCC)cc1 (stereo not given)
- T/C (dose: 50.0 mg/kg/injection, schedule: Q01DX009 (ip), vehicle: other): 125 % of control
- T/C (dose: 100.0 mg/kg/injection, schedule: Q01DX009 (ip), vehicle: other): 130 % of control
- T/C (dose: 200.0 mg/kg/injection, schedule: Q01DX009 (ip), vehicle: other): 145 % of control

SMILES: CCCCN(CCCC)CCC(=O)c1ccc(OC)c2ccccc12
- survivor count [3]: 1 of 6
- survivor count [5]: 0 of 6

SMILES: C=CC[N+](CC=C)(CC=C)CC[N+](CC=C)(CC=C)CC=C
- survivor count (dose: 50.0 mg/kg/injection, schedule: Q01DX009 (ip), vehicle: water): 6 of 6
- survivor count (dose: 100.0 mg/kg/injection, schedule: Q01DX009 (ip), vehicle: water): 6 of 6
- survivor count [4]: 2 of 6
- survivor count (dose: 200.0 mg/kg/injection, schedule: Q01DX009 (ip), vehicle: water): 6 of 6

SMILES: CCOC(=O)C1C2OC(=O)C(C(=O)C2CN(CCCl)CCCl)C1C1CC=C(CC2=CCC(C3C4C(=O)OC(C(CN(CCCl)CCCl)C4=O)C3C(=O)OCC)CC2)CC1 (stereo not given)
- T/C (dose: 6.25 mg/kg/injection, schedule: Q01DX009 (ip), vehicle: Klucel (hydroxypropylcellulose) (HPC)): 132 % of control
- survivor count (dose: 200.0 mg/kg/injection, schedule: Q01DX009 (ip), vehicle: Klucel (hydroxypropylcellulose) (HPC)): 6 of 6

SMILES: Clc1c(Cl)c(C[P+](CCP(c2ccccc2)c2ccccc2)(c2ccccc2)c2ccccc2)c(Cl)c(Cl)c1C[P+](CCP(c1ccccc1)c1ccccc1)(c1ccccc1)c1ccccc1
- T/C (dose: 6.25 mg/kg/injection, schedule: Q01DX009 (ip), vehicle: suspension in saline): 129 % of control
- T/C (dose: 12.5 mg/kg/injection, schedule: Q01DX009 (ip), vehicle: suspension in saline): 149 % of control
- survivor count (dose: 50.0 mg/kg/injection, schedule: Q01DX009 (ip), vehicle: saline with Tween-80): 0 of 6
- survivor count [3]: 0 of 6
- survivor count [5]: 0 of 6

SMILES: CCNC1(c2ccc(Cl)cc2)CCCCC1=O (stereo not given)
- survivor count (dose: 100.0 mg/kg/injection, schedule: Q01DX009 (ip), vehicle: saline): 5 of 6
- survivor count (dose: 200.0 mg/kg/injection, schedule: Q01DX009 (ip), vehicle: saline): 0 of 6
- survivor count (dose: 200.0 mg/kg/injection, schedule: Q04DX003 (ip), vehicle: saline): 0 of 6

SMILES: CCCCC(=O)N/N=C(\C)[C@]1(O)Cc2c(O)c3c(c(O)c2[C@@H](OC2CC(N)C(O)C(C)O2)C1)C(=O)c1c(OC)cccc1C3=O (stereo not given in full)
- survivor count (dose: 6.25 mg/kg/injection, schedule: Q01DX009 (ip), vehicle: water): 6 of 6
- survivor count (dose: 12.5 mg/kg/injection, schedule: Q01DX009 (ip), vehicle: water): 6 of 6
- survivor count (dose: 25.0 mg/kg/injection, schedule: Q01DX009 (ip), vehicle: water): 6 of 6
